Results are given in words; binding and its absence hold for the method and conditions named. Binding seen in cells or lysates may run through a third protein. Some entries that bind do so weakly or less than the wild type.
Key:
[1] = target: SOCS3 (mouse (endogenous in Raw 264.7)) (UniProt O35718); assay: co-IP; Raw 264.7 cells, 10 min after 10 ug/mL E. coli LPS; anti-SOCS3 (sc-9023) covalently immobilised on amine-reactive columns (Pierce Co-IP kit), 500 ug lysate, 12 h at 4°C; blot for total STAT3
[2] = target: SOCS3 (mouse (endogenous in Raw 264.7)) (UniProt O35718); assay: co-IP; Raw 264.7 cells, 60 min after 10 ug/mL E. coli LPS; anti-SOCS3 (sc-9023) covalently immobilised on amine-reactive columns (Pierce Co-IP kit), 500 ug lysate, 12 h at 4°C; blot for total STAT3

The chains behind the UniProt entries cited, without tags or fusion partners.
UniProt O35718: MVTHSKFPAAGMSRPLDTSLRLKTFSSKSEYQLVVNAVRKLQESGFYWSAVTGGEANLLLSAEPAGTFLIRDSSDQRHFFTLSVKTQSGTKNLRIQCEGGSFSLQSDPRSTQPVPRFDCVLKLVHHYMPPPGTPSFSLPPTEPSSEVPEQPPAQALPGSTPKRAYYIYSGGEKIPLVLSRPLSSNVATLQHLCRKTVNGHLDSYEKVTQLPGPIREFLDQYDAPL
UniProt P42227: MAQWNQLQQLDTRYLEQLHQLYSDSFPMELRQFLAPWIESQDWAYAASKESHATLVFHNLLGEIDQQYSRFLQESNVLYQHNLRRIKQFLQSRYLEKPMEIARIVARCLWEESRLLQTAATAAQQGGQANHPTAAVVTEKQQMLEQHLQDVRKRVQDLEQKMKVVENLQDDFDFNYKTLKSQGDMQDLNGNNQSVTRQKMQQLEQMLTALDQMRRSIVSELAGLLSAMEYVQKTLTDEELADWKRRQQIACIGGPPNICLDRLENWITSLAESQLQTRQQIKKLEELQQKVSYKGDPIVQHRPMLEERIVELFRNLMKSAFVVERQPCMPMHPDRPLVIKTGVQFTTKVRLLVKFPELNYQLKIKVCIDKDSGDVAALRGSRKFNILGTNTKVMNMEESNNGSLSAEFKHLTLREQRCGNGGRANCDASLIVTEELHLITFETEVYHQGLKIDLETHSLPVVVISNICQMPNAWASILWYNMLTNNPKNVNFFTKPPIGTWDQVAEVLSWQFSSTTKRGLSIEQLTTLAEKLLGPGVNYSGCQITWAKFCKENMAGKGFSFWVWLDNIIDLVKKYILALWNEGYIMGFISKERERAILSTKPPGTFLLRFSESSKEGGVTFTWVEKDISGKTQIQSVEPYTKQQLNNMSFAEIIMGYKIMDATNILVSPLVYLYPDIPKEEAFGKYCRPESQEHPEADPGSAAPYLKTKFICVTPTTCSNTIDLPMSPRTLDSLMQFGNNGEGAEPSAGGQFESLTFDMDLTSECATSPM

binding [2]: binds
Substance: STAT3 (from UniProt P42227 1-770)
binding [1]: no binding (condition: 10 min after LPS stimulation)

From article PMC3775441
